Data taken from PubChem BioAssay AID1347103, deposited by NCATS (2019).

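OHS-50 osteosarcoma cells exposed to compounds for 48 h, with viable, metabolically active cells measured by CellTiter-Glo luminescence.
Compounds were tested in dilution series reaching up to 46 µM; the NPC set spanned 0.59 nM to 46 µM.
Potency is the concentration giving half of the fitted cell-killing effect; lower values mean stronger cytotoxic potency.
Calls come from the curve class and an activity score, where scores of 1 to 39 mark inconclusive: weak, partial, poorly fitted, or top-dose-only killing.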

Values are in nM.
Every entry below has the call inconclusive.
These entries are mostly ones the record files as inconclusive; other results of the assay are not listed here.
A potency from a partial, single-point or poor curve is only a rough figure.
Some entries filed as inconclusive have a full curve.
Activity scores are not listed here.
An entry listed twice with the same setting is a separate test.

SMILES | potency (nM) | curve as filed
NC(=O)c1ccc2nc(-c3ccc(Oc4ccc(Cl)cc4)cc3)[nH]c2c1 | 1721 | cytotoxic, partial curve
CC(C)=CC1C(C(=O)OCc2cccc(Oc3ccccc3)c2)C1(C)C (centres unmarked) | 21890 | cytotoxic, partial curve, poor fit
CN(C)CCOc1cc(-c2cn[nH]c2)ccc1NC(=O)C1COc2ccccc2O1 (centres unmarked) | 3435 | cytotoxic, partial curve, poor fit
COc1ccc(CCN(C)CCCOc2ccc(S(=O)(=O)c3[nH]c4ccccc4c3C(C)C)cc2)cc1OC | 7689 | cytotoxic, partial curve
CC(C)(Sc1cc(C(C)(C)C)c(O)c(C(C)(C)C)c1)Sc1cc(C(C)(C)C)c(O)c(C(C)(C)C)c1 | 21671 | cytotoxic, partial curve
CC(C)(N)Cc1ccc(Cl)cc1 | 21890 | cytotoxic, partial curve, poor fit
CC(C)[C@H](O)C(=O)N[C@@H](C)C(=O)N[C@@H]1C(=O)N(C)CCc2ccccc21 | 544.4 | cytotoxic, partial curve, poor fit
O=C(N/N=C/c1ccc([N+](=O)[O-])o1)c1ccc(O)cc1 | 43677 | cytotoxic, single point
Cn1cc(C=C2C(=O)Nc3cccnc32)c2ccccc21 | 24315 | cytotoxic, partial curve
CCN(CC)CCOc1ccc(Cc2ccccc2)cc1 | 21671 | cytotoxic, partial curve
CCOC(=O)C1=C(C)NC(C)=C(C(=O)OC)C1c1cccc(Cl)c1Cl (centres unmarked) | 24561 | cytotoxic, single point
Cc1csc(NC(=O)c2sc3nc4c(c(C(F)(F)F)c3c2N)CCC4)n1 | 7689 | cytotoxic, full curve
Nc1nc2ccc(OC(F)(F)F)cc2s1 | 27282 | cytotoxic, partial curve
CC(C)Oc1ccc2c(=O)c(-c3ccccc3)coc2c1 | 9680 | cytotoxic, full curve
Cc1ccc(-n2nc(C(C)(C)C)cc2NC(=O)Nc2ccc(OCCN3CCOCC3)c3ccccc23)cc1 | 138.1 | cytotoxic, partial curve, poor fit
CCOC(=O)c1ccc(O)c(O)c1 | 38927 | cytotoxic, single point
CC(C)OC(=O)C(C(=O)OC(C)C)=C1SC=CS1 | 24315 | cytotoxic, single point
C=C(C)[C@@H]1CC[C@]2(C(=O)O)CC[C@]3(C)[C@H](CC[C@@H]4[C@@]5(C)CC[C@H](O)C(C)(C)[C@@H]5CC[C@]43C)[C@@H]12 | 768.9 | cytotoxic, full curve
CC(=O)Oc1ccc(C(c2ccc(OC(C)=O)cc2)c2ccccn2)cc1 | 2456 | cytotoxic, full curve
Cc1cc(OCCCc2c(C(=O)O)n(Cc3cccnc3)c3c(-c4c(COc5ccc(N6CCN([S+](C)(=O)[O-])CC6)cc5)nn(C)c4C)cccc23)cc(C)c1Cl | 34346 | cytotoxic, single point
CCCC(=O)OC[C@@H](OC(=O)CCC)[C@@H](OC(=O)CCC)[C@H](Cn1c2nc(=O)[nH]c(=O)c-2nc2cc(C)c(C)cc21)OC(=O)CCC | 38927 | cytotoxic, single point
CN(C1CCc2c(c3ccccc3n2CC(=O)O)C1)S(=O)(=O)c1ccc(F)cc1 (centres unmarked) | 2728 | cytotoxic, full curve
CNCCC(Oc1ccccc1OC)c1ccccc1 (centres unmarked) | 17388 | cytotoxic, partial curve, poor fit
O=c1cc(-c2ccc(O)c(O)c2)oc2cc(O)cc(O)c12 | 17214 | cytotoxic, partial curve
CC(=O)[C@H]1CC[C@H]2[C@@H]3CC=C4C[C@@H](O)CC[C@]4(C)[C@H]3CC[C@]12C | 10971 | cytotoxic, partial curve
Cc1ccccc1C(C(=O)NC1CCCC1)N(C(=O)Cn1cnc2ccccc21)c1cccc(F)c1 (centres unmarked) | 19314 | cytotoxic, partial curve
O=C(NOCC1CC1)c1ccc(F)c(F)c1Nc1ccc(I)cc1Cl | 30921 | cytotoxic, single point
CS(=O)(=O)CCNCc1ccc(-c2ccc3ncnc(Nc4ccc(OCc5cccc(F)c5)c(Cl)c4)c3c2)o1 | 38927 | cytotoxic, single point
CC(C)OC(=O)OCOP(=O)(CO[C@H](C)Cn1cnc2c(N)ncnc21)OCOC(=O)OC(C)C | 7689 | cytotoxic, full curve
CC(C)OC(=O)C(C(=O)OC(C)C)=C1SC=CS1 | 30921 | cytotoxic, single point
CCCCC(CC)COC(=O)/C=C/c1ccc(OC)cc1 (centres unmarked) | 21890 | cytotoxic, single point
CCN(CC)CCOCCOC(=O)C1(c2ccccc2)CCCC1 | 21890 | cytotoxic, partial curve, poor fit
CO[C@@H]1[C@@H](O[C@@H]2O[C@H](C)[C@@H](O[C@H]3C[C@@](C)(O)[C@@H](O)[C@H](C)O3)[C@H](N(C)C)[C@H]2O)[C@@H](CC=O)C[C@@H](C)[C@@H](O[C@@H]2CC[C@H](N(C)C)[C@@H](C)O2)/C=C/C=C/C[C@@H](C)OC(=O)C[C@H]1OC(C)=O | 24561 | cytotoxic, partial curve, poor fit
Cc1cc(OCCCS(C)(=O)=O)cc(C)c1-c1cccc(COc2ccc3c(c2)OC[C@H]3CC(=O)O)c1 | 34346 | cytotoxic, single point
COc1ccc2nc(S(=O)Cc3ncc(C)c(OC)c3C)[nH]c2c1 (centres unmarked) | 43239 | cytotoxic, single point
CC(=O)OCC(=O)[C@@]1(O)CC[C@H]2[C@@H]3CCC4=CC(=O)C=C[C@]4(C)[C@@H]3[C@@H](O)C[C@@]21C | 2432 | cytotoxic, partial curve, poor fit
Clc1ccc(C2(c3ccc(-c4cn[nH]c4)cc3)CCNCC2)cc1 | 8627 | cytotoxic, partial curve
CN(C)C/C=C(/c1ccc(Br)cc1)c1cccnc1 | 17388 | cytotoxic, single point
CC(C)c1ccc2c(c1)c(SC(C)(C)C)c(CC(C)(C)C(=O)O)n2Cc1ccc(Cl)cc1 | 43239 | cytotoxic, single point
Nc1cc(C(F)(F)F)ccc1S | 38927 | cytotoxic, single point
CC(C)NC[C@@H](O)COc1cccc2ccccc12 | 24561 | cytotoxic, single point
S=P(N1CC1)(N1CC1)N1CC1 | 84144 | cytotoxic, partial curve, poor fit
CN1CCN(C2=Nc3cc(Cl)ccc3Nc3ccccc32)CC1 | 27558 | cytotoxic, single point
Cc1cc(O)c2ccccc2c1O | 38927 | cytotoxic, single point
CS(=O)(=O)CCNCc1ccc(-c2ccc3ncnc(Nc4ccc(OCc5cccc(F)c5)c(Cl)c4)c3c2)o1 | 34346 | cytotoxic, single point
COc1cc(Nc2ncc3c(n2)-c2ccc(Cl)cc2C(c2c(F)cccc2OC)=NC3)ccc1C(=O)O | 21671 | cytotoxic, partial curve, poor fit
Cc1cccc(-c2[nH]ncc2-c2ccc3ncccc3n2)n1 | 8627 | cytotoxic, partial curve
CN1CCC(=C2c3ccccc3CCc3sccc32)CC1 | 17214 | cytotoxic, partial curve
O=C1c2c(O)cc(O)cc2O[C@H](c2cc(O)c(O)c(O)c2)[C@H]1O | 34346 | cytotoxic, single point

The first 5 entries again:

SMILES,potency (nM),curve as filed
NC(=O)c1ccc2nc(-c3ccc(Oc4ccc(Cl)cc4)cc3)[nH]c2c1,1721,"cytotoxic, partial curve"
CC(C)=CC1C(C(=O)OCc2cccc(Oc3ccccc3)c2)C1(C)C (centres unmarked),21890,"cytotoxic, partial curve, poor fit"
CN(C)CCOc1cc(-c2cn[nH]c2)ccc1NC(=O)C1COc2ccccc2O1 (centres unmarked),3435,"cytotoxic, partial curve, poor fit"
COc1ccc(CCN(C)CCCOc2ccc(S(=O)(=O)c3[nH]c4ccccc4c3C(C)C)cc2)cc1OC,7689,"cytotoxic, partial curve"
CC(C)(Sc1cc(C(C)(C)C)c(O)c(C(C)(C)C)c1)Sc1cc(C(C)(C)C)c(O)c(C(C)(C)C)c1,21671,"cytotoxic, partial curve"